Results are given in words; binding and its absence hold for the method and conditions named. For some assays here: Binding seen in cells or lysates may run through a third protein. Some entries that bind do so weakly or less than the wild type. For some assays here: Sequences can lack the tags named with a protein. One block for each binder: values may come before it.
What was measured:
[1] = molecular target: Flag-tagged full-length Aurora B kinase (AURKB) (human) (UniProt Q96GD4); assay: co-IP; anti-Flag M2 affinity gel; whole-cell lysates of transfected 293T cells, 1.0 mg protein in lysis buffer (50 mM Tris-HCl pH 7.5, 150 mM NaCl, 1% NP-40, 5 mM EDTA, 5 mM EGTA); 4 °C, 3-4 h; Western blot
[2] = molecular target: GST-AURKB (human) (UniProt Q96GD4); assay: pull-down; in vitro GST pull-down: GST-AURKB or GST immobilised on glutathione-Sepharose beads, incubated with purified His-RecQL4-Flag; 4 °C, 2 h; Western blot with RecQL4 antibodies; both purified

Amino acid sequences for entries named in this document (tags omitted).
UniProt Q96GD4: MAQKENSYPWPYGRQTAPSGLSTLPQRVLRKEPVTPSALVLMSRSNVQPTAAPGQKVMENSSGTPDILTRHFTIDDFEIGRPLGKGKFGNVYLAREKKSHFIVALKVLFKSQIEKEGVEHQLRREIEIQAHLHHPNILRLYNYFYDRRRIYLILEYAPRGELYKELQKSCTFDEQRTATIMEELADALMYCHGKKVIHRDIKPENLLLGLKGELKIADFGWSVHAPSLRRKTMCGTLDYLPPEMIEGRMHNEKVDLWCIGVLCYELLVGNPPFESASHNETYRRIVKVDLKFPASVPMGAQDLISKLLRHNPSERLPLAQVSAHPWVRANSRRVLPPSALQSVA

binding [1]: binds
B1: endogenous (native) RecQL4 helicase of 293T cells (protein, UniProt O94761 1-1208)
chain: MERLRDVRERLQAWERAFRRQRGRRPSQDDVEAAPEETRALYREYRTLKRTTGQAGGGLRSSESLPAAAEEAPEPRCWGPHLNRAATKSPQSTPGRSRQGSVPDYGQRLKANLKGTLQAGPALGRRPWPLGRASSKASTPKPPGTGPVPSFAEKVSDEPPQLPEPQPRPGRLQHLQASLSQRLGSLDPGWLQRCHSEVPDFLGAPKACRPDLGSEESQLLIPGESAVLGPGAGSQGPEASAFQEVSIRVGSPQPSSSGGEKRRWNEEPWESPAQVQQESSQAGPPSEGAGAVAVEEDPPGEPVQAQPPQPCSSPSNPRYHGLSPSSQARAGKAEGTAPLHIFPRLARHDRGNYVRLNMKQKHYVRGRALRSRLLRKQAWKQKWRKKGECFGGGGATVTTKESCFLNEQFDHWAAQCPRPASEEDTDAVGPEPLVPSPQPVPEVPSLDPTVLPLYSLGPSGQLAETPAEVFQALEQLGHQAFRPGQERAVMRILSGISTLLVLPTGAGKSLCYQLPALLYSRRSPCLTLVVSPLLSLMDDQVSGLPPCLKAACIHSGMTRKQRESVLQKIRAAQVHVLMLTPEALVGAGGLPPAAQLPPVAFACIDEAHCLSQWSHNFRPCYLRVCKVLRERMGVHCFLGLTATATRRTASDVAQHLAVAEEPDLHGPAPVPTNLHLSVSMDRDTDQALLTLLQGKRFQNLDSIIIYCNRREDTERIAALLRTCLHAAWVPGSGGRAPKTTAEAYHAGMCSRERRRVQRAFMQGQLRVVVATVAFGMGLDRPDVRAVLHLGLPPSFESYVQAVGRAGRDGQPAHCHLFLQPQGEDLRELRRHVHADSTDFLAVKRLVQRVFPACTCTCTRPPSEQEGAVGGERPVPKYPPQEAEQLSHQAAPGPRRVCMGHERALPIQLTVQALDMPEEAIETLLCYLELHPHHWLELLATTYTHCRLNCPGGPAQLQALAHRCPPLAVCLAQQLPEDPGQGSSSVEFDMVKLVDSMGWELASVRRALCQLQWDHEPRTGVRRGTGVLVEFSELAFHLRSPGDLTAEEKDQICDFLYGRVQARERQALARLRRTFQAFHSVAFPSCGPCLEQQDEERSTRLKDLLGRYFEEEEGQEPGGMEDAQGPEPGQARLQDWEDQVRCDIRQFLSLRPEEKFSSRAVARIFHGIGSPCYPAQVYGQDRRFWRKYLHLSFHALVGLATEELLQVAR

binding [2]: binds
B2: His-RecQL4-Flag (full-length RecQL4 with N-terminal His tag and C-terminal Flag tag) (protein, UniProt O94761 1-1208)
chain: B1 chain
